No constants are given. Whether binding was seen depends on the method and setting. Some binding calls cover weakened binding; strength is not graded here. Tags and fused reporters may be left off the sequences shown.
Key:
YBGK-GFP11 (E. coli) = target: T1, YBGK-GFP11 (E. coli) (UniProt P75745); assay: tripartite split-GFP in E. coli colonies
T1 sequence: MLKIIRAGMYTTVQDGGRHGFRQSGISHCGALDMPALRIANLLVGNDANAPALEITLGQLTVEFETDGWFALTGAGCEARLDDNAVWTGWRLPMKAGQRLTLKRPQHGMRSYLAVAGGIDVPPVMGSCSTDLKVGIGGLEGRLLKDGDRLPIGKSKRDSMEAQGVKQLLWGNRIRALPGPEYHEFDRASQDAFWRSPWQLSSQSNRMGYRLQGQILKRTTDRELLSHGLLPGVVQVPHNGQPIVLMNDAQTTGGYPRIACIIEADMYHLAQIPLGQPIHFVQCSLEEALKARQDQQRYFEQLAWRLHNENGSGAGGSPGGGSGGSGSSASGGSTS

Protein sequences, listed by entry. Tags and fused reporters are not part of them. Lines headed by an entry give the natural chain unless they say otherwise; changes in a name come on top.
UniProt P0AAV4: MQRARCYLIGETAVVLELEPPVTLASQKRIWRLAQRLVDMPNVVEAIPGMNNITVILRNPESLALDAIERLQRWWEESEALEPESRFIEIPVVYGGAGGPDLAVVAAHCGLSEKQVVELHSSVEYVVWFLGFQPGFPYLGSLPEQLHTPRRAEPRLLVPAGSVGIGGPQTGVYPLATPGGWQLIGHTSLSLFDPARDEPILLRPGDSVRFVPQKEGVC
UniProt P45532: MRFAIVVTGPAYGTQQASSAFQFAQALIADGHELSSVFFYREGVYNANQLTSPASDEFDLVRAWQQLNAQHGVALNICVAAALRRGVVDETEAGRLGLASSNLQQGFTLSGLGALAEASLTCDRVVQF

[1] = target: T2, YheL-GFP11 (last subunit of the YheNML and YheML polycistrons) (E. coli) (UniProt P45530); assay: tripartite split-GFP in E. coli colonies; GFP10 on YheN, GFP11 on YheL, untagged YheM co-expressed
T2 sequence: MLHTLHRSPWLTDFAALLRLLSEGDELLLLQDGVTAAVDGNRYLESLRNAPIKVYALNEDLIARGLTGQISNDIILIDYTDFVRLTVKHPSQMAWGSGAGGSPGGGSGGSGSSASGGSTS

Row | Substance | binding (YBGK-GFP11 (E. coli)) | binding [1]
1 | GFP10-YBGJ (from UniProt P0AAV4 1-218) | binds | 
2 | GFP10-YheN (first subunit of the YheNML polycistron) (from UniProt P45532 1-128) |  | binds

— patent publication US20150099271A1
